These results are taken from PMC5814169.

By UniProt entry, the sequences of proteins in these tests, tags left out.
UniProt Q99NH2: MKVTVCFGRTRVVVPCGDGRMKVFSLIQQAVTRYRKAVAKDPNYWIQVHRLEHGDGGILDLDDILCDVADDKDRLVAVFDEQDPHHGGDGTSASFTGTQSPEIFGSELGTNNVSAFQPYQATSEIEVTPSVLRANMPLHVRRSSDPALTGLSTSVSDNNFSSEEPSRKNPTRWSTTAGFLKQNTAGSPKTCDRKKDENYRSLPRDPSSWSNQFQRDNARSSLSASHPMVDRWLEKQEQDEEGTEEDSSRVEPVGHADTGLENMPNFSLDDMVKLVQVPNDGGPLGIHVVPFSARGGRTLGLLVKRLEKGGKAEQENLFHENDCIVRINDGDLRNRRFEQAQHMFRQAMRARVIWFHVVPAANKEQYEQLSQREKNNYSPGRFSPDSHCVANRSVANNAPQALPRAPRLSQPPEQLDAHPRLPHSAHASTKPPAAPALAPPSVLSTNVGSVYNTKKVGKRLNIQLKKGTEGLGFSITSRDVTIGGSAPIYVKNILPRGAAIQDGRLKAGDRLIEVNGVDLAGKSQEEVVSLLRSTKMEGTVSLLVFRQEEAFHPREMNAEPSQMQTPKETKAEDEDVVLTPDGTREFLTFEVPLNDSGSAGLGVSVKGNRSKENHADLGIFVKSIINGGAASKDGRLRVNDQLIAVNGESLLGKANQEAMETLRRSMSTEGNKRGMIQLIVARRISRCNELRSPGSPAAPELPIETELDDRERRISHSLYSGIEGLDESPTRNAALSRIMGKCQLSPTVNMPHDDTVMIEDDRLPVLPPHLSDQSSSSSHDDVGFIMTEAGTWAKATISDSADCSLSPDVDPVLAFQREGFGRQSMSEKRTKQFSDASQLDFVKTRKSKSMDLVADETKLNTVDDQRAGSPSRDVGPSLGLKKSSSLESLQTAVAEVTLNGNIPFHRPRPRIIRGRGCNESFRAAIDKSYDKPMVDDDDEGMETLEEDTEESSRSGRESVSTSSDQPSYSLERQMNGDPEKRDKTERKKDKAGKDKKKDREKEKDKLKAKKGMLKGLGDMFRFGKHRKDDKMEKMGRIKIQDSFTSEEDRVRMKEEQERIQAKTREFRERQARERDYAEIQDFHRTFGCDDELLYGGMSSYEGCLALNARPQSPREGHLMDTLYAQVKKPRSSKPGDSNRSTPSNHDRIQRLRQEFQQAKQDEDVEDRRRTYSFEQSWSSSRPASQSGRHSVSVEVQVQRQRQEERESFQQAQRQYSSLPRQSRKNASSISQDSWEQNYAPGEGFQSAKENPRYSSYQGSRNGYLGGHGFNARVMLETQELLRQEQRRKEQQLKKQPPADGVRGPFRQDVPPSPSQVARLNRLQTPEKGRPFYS

Assay [1] concerns the target T1, SIK K56R, kinase-inactive mutant, transfected in NMuMG cells (human) (UniProt P57059).
T1 sequence: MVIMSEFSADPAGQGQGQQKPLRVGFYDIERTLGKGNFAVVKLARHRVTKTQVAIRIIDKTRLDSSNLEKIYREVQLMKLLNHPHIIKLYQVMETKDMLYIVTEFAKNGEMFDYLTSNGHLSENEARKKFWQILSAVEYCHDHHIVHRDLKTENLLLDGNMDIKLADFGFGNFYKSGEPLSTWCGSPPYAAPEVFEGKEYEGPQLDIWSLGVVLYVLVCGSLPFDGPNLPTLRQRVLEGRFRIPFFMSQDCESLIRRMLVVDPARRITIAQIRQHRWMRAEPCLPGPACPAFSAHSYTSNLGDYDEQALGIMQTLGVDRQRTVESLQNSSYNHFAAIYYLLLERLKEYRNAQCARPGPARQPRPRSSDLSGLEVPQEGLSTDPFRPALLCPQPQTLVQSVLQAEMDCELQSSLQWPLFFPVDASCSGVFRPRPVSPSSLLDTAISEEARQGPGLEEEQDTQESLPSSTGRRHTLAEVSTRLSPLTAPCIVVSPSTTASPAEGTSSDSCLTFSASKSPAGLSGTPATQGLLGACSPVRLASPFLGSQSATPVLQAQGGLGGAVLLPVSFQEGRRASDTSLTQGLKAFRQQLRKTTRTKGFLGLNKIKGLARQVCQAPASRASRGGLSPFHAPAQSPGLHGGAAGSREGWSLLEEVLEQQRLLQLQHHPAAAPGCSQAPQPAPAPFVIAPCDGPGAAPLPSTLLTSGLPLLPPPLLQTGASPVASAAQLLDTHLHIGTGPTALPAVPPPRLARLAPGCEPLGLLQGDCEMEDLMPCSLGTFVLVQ
In words: co-IP; NMuMG cells transfected with WT or K56R SIK; immunoprecipitation with a SIK-specific antibody; blot for endogenous Par3; cells treated with 5 ng/ml TGFβ or vehicle overnight.

Assay [2] concerns the target salt-inducible kinase 1 (SIK), wild type, transfected in NMuMG cells (human) (UniProt P57059). The assay is described as above.
The target in assay [3] is Par3 180 kD isoform (mouse), transfected in HEK293T cells (mouse) (UniProt Q99NH2). In words: co-IP; HEK293T cells transfected with the three Par3 isoforms, with or without co-expressed SIK; immunoprecipitation of Par3, Protein-G Dynabeads; blot for SIK; rabbit IgG as control.
For assay [4], the target named is endogenous Par3 (180 kD isoform) of NMuMG cells (mouse (endogenous in NMuMG)) (UniProt Q99NH2). In words: co-IP; NMuMG cells transfected with WT or K56R SIK; immunoprecipitation with a Par3-specific antibody (endogenous Par3); blot for SIK; cells treated with 5 ng/ml TGFβ or vehicle overnight.
In assay [5] the target is T2, SIK K56R, catalytically inactive mutant, transfected in HEK293T cells (human) (UniProt P57059).
T2 sequence: T1 sequence
In words: co-IP; HEK293T cells transfected with the three Par3 isoforms and SIK K56R; immunoprecipitation with an in-house SIK antibody; blot for Par3; non-related antibody as control.

These are yes or no findings as the source states them, for the method shown. In cells and extracts the contact can be indirect. Some results given as binding are weak or reduced against the parent protein; the word gives no strength.

As for “endogenous Par3 (180 kD isoform) of NMuMG cells (from UniProt Q99NH2 1-1333)”, the binding result in assay [1] and in assay [2] was “binds” throughout.

Regarding “endogenous SIK of HEK293T cells (from UniProt P57059 1-783) (enzyme)”, the binding entry in assay [3] is on record as “binds”. For “salt-inducible kinase 1 (SIK), wild type, transfected in NMuMG cells (from UniProt P57059 1-783) (enzyme)”, in assay [4], the binding result is recorded as “binds weakly”. As for “salt-inducible kinase 1 (SIK), wild type, transfected in HEK293T cells (from UniProt P57059 1-783) (enzyme)”, the binding entry in assay [3] is “binds”. Consider “Par3 180 kD isoform (mouse), transfected in HEK293T cells (from UniProt Q99NH2 1-1333)”, for which the binding entry in assay [5] was “binds”.
